Experimental data reported in patent US20260049144A1 (Johns Hopkins, published 2026).
Numbering of substitutions follows the chain as printed. These are yes or no findings as the source states them, for the method shown. Some binding calls cover weakened binding; strength is not graded here. Blank lines part the entries; values can stand above or below the binder they belong to.

Amino acid sequences for entries named in this document (tags omitted).
UniProt Q9NZQ7: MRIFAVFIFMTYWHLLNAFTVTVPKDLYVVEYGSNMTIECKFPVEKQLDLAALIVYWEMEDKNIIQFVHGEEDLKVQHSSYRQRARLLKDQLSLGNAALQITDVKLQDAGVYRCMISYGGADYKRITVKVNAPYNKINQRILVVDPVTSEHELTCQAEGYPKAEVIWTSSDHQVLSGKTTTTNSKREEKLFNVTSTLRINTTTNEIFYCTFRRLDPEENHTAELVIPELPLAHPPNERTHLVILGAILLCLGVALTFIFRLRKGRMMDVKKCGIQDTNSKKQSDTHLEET

How the values were obtained:
[1] = target: PD-L1 extracellular domain (ECD) (UniProt Q9NZQ7); assay: yeast-displayed VNAR library selection (MACS/FACS)
[2] = target: PD-L1 extracellular domain (ECD) (UniProt Q9NZQ7); assay: BLI competition: B8 VNAR immobilized on the tip, 100 nM PD-L1, soluble B8 VNAR titrated as competitor
[3] = target: PD-L1 extracellular domain (ECD) (UniProt Q9NZQ7); assay: BLI competition: D12 scFv immobilized on the tip, 1000 nM PD-L1, soluble B8 VNAR titrated as competitor
[4] = target: PD-L1 extracellular domain (ECD) (UniProt Q9NZQ7); assay: BLI competition: atezolizumab scFv immobilized on the tip, 100 nM PD-L1, soluble B8 VNAR titrated as competitor
[5] = target: PD-L1 extracellular domain (ECD) (UniProt Q9NZQ7); assay: yeast surface display of the VNAR clone, titration of soluble PD-L1, flow cytometry (MFI)
[6] = target: PD-L1 extracellular domain (ECD) (UniProt Q9NZQ7); assay: BLI competition: B8 VNAR immobilized on the tip, 100 nM PD-L1, soluble A9 VNAR titrated as competitor
[7] = target: PD-L1 extracellular domain (ECD) (UniProt Q9NZQ7); assay: BLI competition: D12 scFv immobilized on the tip, 1000 nM PD-L1, soluble A9 VNAR titrated as competitor
[8] = target: PD-L1 extracellular domain (ECD) (UniProt Q9NZQ7); assay: BLI competition: atezolizumab scFv immobilized on the tip, 100 nM PD-L1, soluble A9 VNAR titrated as competitor

B3: C7 VNAR (VNAR)
VNAR: ARVDQTPQTITKETGESLTINCVVRDSACALVRTFWYRKKSGSTNEESISKGGRYVETVNSGSKSFSLRINDLTVEDSGTYRCKVFGWCRMRDVYGGGTVVTVN
notes: Not the same as C7 scFv
- binding [1]: binds
- binding [5]: binds

B4: A9 VNAR (VNAR)
VNAR: B3 VNAR with S27T, S61R
notes: VNAR (shark variable new antigen receptor single domain) from nurse sharks immunised with the PD-L1 ECD; Measured on yeast and as a soluble fragment (BLI)
- binding [1]: binds
- binding [6]: binds
- binding [7]: binds
- binding [8]: binds

More lines, now with the values ahead:

- binding [1]: binds
B1: B11 VNAR (VNAR)
VNAR: ARVDQTPQTITKETGESLTINCVLRDSNCALSSTYWYRKKSGSTNEESISKGGRYVETVNSGSKSFSLRINDLTVEDSGTYRCRLFVSWLSDYDCATYYVSGGGTVVTVN

- binding [1]: binds
- binding [2]: binds
- binding [3]: binds
- binding [4]: binds
B2: B8 VNAR (VNAR)
VNAR: ARVDQTPQTITKETGESLTINCVLRDASYALGSTCWYRKKSGSTNEESISIGGRYVETVNSGSKSFSLRINDLTVEDSGTYRCGVDSWCPPVCSWAYAGCGDGTAVTVN
notes: VNAR (shark single domain); Measured on yeast and as a soluble fragment (BLI); Not the same as B8 scFv

- binding [1]: binds
B5: C4 VNAR (VNAR)
VNAR: B3 VNAR with Q8L, V24L, A28N, V32S, R33S, F35Y, K40S, S48I, K64N
